# At least one structure is not confirmed: it was looked up by name or label, or the drawing left a doubt.
# The chains behind the UniProt entries cited, without tags or fusion partners. Residues count along the entry.
# UniProt P08246, 30-267: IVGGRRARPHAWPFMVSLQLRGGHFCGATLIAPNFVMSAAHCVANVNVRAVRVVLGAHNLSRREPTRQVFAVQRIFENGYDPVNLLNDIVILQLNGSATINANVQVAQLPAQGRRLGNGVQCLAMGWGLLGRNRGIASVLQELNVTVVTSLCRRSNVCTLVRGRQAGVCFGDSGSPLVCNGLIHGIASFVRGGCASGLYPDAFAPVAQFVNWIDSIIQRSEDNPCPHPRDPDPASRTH
# UniProt P08246, 30-247: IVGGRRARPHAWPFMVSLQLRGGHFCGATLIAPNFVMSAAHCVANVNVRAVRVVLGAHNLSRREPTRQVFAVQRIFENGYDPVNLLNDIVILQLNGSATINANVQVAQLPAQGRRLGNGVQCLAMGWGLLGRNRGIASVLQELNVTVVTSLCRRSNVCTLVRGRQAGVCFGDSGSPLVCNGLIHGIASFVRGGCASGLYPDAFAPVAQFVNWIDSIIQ
# Experiments:
# Format in all cases: biochemical
# [1] = biological target: elastase in CF patient sputum (Homo sapiens (Human), UniProt P08246); assay: Elastase inhibition assay in CF patient sputum
# Method: (§1) Serially diluted compounds in DMSO were dispensed into a 384-well black opaque plate by Echo dispenser. 0.1 μg/mL human neutrophil elastase (EPC, Catalog# SE563, Owensville, Ms.) or human sputum diluted with assay buffer (100 mM HEPES, 500 mM NaCl, 0.02% Tween 20) was added into the 384-well plate, and was incubated with different compounds at different concentrations for 30 minutes at room temperature. The final concentration of DMSO in the reaction was 0.1%. Elastase substrate MeOSuc-AAPV-AMC (Bachem, Catalog #I-1270, Torrance, CA) of 100 μM final concentration was then added into the reaction system just before enzyme kinetics were read on PheraSTAR plate reader at excitation of 380 nm and emission of 460 nm with a 3-minutes interval for 30 minutes in total. Slope of fluorescence intensity vs. time representing the Vmax of enzyme activity was calculated with MARS software. % relative inhibition was calculated as: […]
# (§2) IC50 was calculated based on the % relative inhibition curve using log(agonist) vs. response (three parameters) method with Prism software. […]
# (§3) Human sputum was purchased from Discovery Life Sciences (Los Osos, CA). […] The elastase concentration was determined by elastase inhibition assay as described above. […] The slope of enzymatic kinetic reading was calculated by MARS software. The elastase levels of the human sputum were calculated based on the standard curve.
# [2] = biological target: human neutrophil elastase (Homo sapiens (Human), UniProt P08246); assay: Elastase inhibition assay, purified human neutrophil elastase
# Method: as §1, with “Elastase substrate MeOSuc-AAPV-AMC (Bachem, Catalog #I-1270, Torrance, CA) of 100 μM final concentration was then added into the reaction system just before enzyme kinetics were read on PheraSTAR plate reader at excitation of 380 nm and emission of 460 nm with a 3-minutes interval for 30 minutes in total.” left out
# IC50 was calculated based on the % relative inhibition curve using log(agonist) vs. response (three parameters) method with Prism software. All experiments were performed in triplicate for at least three independent times.
# [3] = biological target: elastase in COPD patient sputum (Homo sapiens (Human), UniProt P08246); assay: Elastase inhibition assay in COPD patient sputum
# Method: as §1, §2, §3
compound,measurement,setting,value
"COC(=O)N[C@H](C(=O)N1CCC[C@H]1C(=O)N[C@H](B(O)O)C(C)C)C(C)C [Compound 50, ((R)-1-((S)-1-((methoxycarbonyl)-L-valyl)pyrrolidine-2-carboxamido)-2-methylpropyl)boronic acid]",LipE,[1],8.09
same,inhibitory activity against HNE (in words),[2],substantially enhanced potency
same,LipE,[2]; Purified NHE,8.37
same,LipE,[3],8.36

# Reference: patent US12415819B2, “Cu- and Ni-catalyzed decarboxylative borylation reactions” (The Scripps Research Institute, priority 2017, dated 2025)
